Measurements as given in patent US4300011A, “Selective production of aromatics” (Mobil Oil Corporation, priority 1980, dated 1981).

Tests used:
[1] = Alkylation of toluene with ethylene over HZSM-5 in presence of heterocycle; settings: for OET in ethyltoluene product / PET in ethyltoluene product: 1.5 hours after slug
[2] = Toluene disproportionation; settings: Example 18; 495° C, 2870 kPa, 130 ppm N; after 0.75 moles per mole Al fed
[3] = Example 13, 130 ppm N, 3.75 hours on stream
[4] = Example 14, 30 ppm N, 3.75 hours on stream
[5] = Example 11, 1.25 hours on stream
[6] = Example 11, 4.5 hours on stream
[7] = Example 1, 0.08 g injected, 380° C, 100 psig, WHSV 28
[8] = Example 7, constant 135 ppm N, lined out
[9] = Example 15, initial slug only, 10% (mole) of Al
[10] = Example 9, after slug, 10 ppm N, 3.25 hours on stream
[11] = Example 12, constant 130 ppm N, 3.75 hours on stream
[12] = Example 19, catalyst not steamed, 3.75 hours on stream
[13] = Example 2, 30 ppm N after slug, 3.25 hours on stream
[14] = Example 2, after slug 0.12 moles per mole Al (130 ppm N, 15 min), 410° C
[15] = Example 2, reduced to 10 ppm N, additional 1.5 hours
[16] = Example 2, then pure toluene, additional 1.5 hours
[17] = Example 3, 30 ppm N, 3.5 hours on stream
[18] = Example 3, after slug 0.25 moles per mole Al (30 min)
[19] = Example 3, then pure toluene 1 hour
[20] = Example 4, constant 130 ppm N, 1.75 hours on stream
[21] = Example 4, constant 130 ppm N, 3.25 hours on stream
[22] = Example 4, switched to pure toluene, 5.25 hours on stream
[23] = Example 10, ZSM-5 about 0.6 microns, 30 ppm N after slug, 2.75 hours

Question: Which OET in ethyltoluenes [1, 3] does the source give for c1ccc2c(c1)ccc1ncccc12 [5,6-Benzoquinoline] here?
Answer: The OET in ethyltoluenes was “no OET”.

Question: And the PET in ethyltoluenes [1, 3]?
Answer: The PET in ethyltoluenes was 86%.

Question: And the “toluene conversion (of theory)” value [1, 3]?
Answer: The value was 97%.

Question: And the OET in ethyltoluenes [1, 4]?
Answer: Its OET in ethyltoluenes is 0%.

Question: And the PET in ethyltoluenes [1, 4]?
Answer: The PET in ethyltoluenes was 79%.

Question: What about the “toluene conversion (of theory)” value [1, 4] of the same molecule?
Answer: Its value is 97%.

Question: Which results are given for c1ccc2c(c1)ccc1ccccc12 [phenanthrene, reference compound]?
Answer: OET/ET [1, 5]: 0.28%; PET/ET [1, 5]: 53.7%; OET/ET [1, 6]: 0.26%; PET/ET [1, 6]: 53.9%

Question: With Cc1cc(C)nc(C)c1 [2,4,6-Collidine, 2,4,6-trimethylpyridine] as the molecule, how does the ortho-isomer in ethyltoluenes [1, 7] read?
Answer: The ortho-isomer in ethyltoluenes was “less than 0.2%”.

Question: And the para-isomer in ethyltoluenes [1, 7]?
Answer: The para-isomer in ethyltoluenes was 41%.

Question: What about the toluene conversion ([1]; Example 1, 0.08 g injected, change versus before injection) of the same molecule?
Answer: The toluene conversion was “little change”.

Question: What about the ortho-isomer in ethyltoluenes ([1]; Example 5, constant 135 ppm N (1 H/Al hr.), lined out) of the same molecule?
Answer: Its ortho-isomer in ethyltoluenes is “no detectable”.

Question: What about the ortho-isomer in ethyltoluenes ([1]; Example 6, 2800 ppm (25 H/Al hr.)) of the same molecule?
Answer: Its ortho-isomer in ethyltoluenes is “no ortho-isomer”.

Question: With Cc1ccnc2ccccc12 [4-Methylquinoline] as the molecule, how does the ortho-isomer in ethyltoluenes [1, 8] read?
Answer: The ortho-isomer in ethyltoluenes was “no detectable”.

Question: What about the “para-isomer, ethyltoluene selectivity” value [1, 8] of the same molecule?
Answer: Its value is 93-94%.

Question: What about the “OET in ethyltoluene product” value [1, 9] of the same molecule?
Answer: Its value is “no OET”.

Question: What about the “PET in ethyltoluene product” value [1, 9] of the same molecule?
Answer: Its value is 75%.

Question: And the “OET in ethyltoluene product” value ([1]; Example 16, unsteamed catalyst)?
Answer: Its value is “no OET”.

Question: What about the “PET in ethyltoluene product” value ([1]; Example 16, unsteamed catalyst) of the same molecule?
Answer: Its value is 87%.

Question: With c1ccc(-c2ccnc3c2ccc2c(-c4ccccc4)ccnc23)cc1 [Bathophenanthroline, 4,7-diphenyl-1,10-phenanthroline] as the molecule, how does the OET in ethyltoluenes [1, 10] read?
Answer: The OET in ethyltoluenes was “no detectable”.

Question: And the PET in ethyltoluenes [1, 10]?
Answer: Its PET in ethyltoluenes is 66%.

Question: For Cc1cccc(C)n1 [2,6-Lutidine], which catalyst activity ([1]; Example 8, 130 ppm N (1 H/Al hr.), after one hour of contact) is on record?
Answer: The catalyst activity was “effectively dead”.

Question: With c1ccc2c(c1)ccc1cccnc12 [7,8-Benzoquinoline] as the molecule, how does the PET in ethyltoluenes [1, 11] read?
Answer: Its PET in ethyltoluenes is 80%.

Question: What about the “toluene conversion (of theory)” value [1, 11] of the same molecule?
Answer: Its value is 93%.

Question: And the ortho-isomer in ethyltoluenes [1, 12]?
Answer: Its ortho-isomer in ethyltoluenes is “no detectable”.

Question: What about the para-isomer in ethyltoluenes [1, 12] of the same molecule?
Answer: The para-isomer in ethyltoluenes was 92.4%.

Question: And the “toluene conversion (of theory)” value [1, 12]?
Answer: The value was 37%.

Question: Which results are given for c1cnc2c(c1)ccc1cccnc12 [1,10-Phenanthroline]?
Answer: ortho-isomer in ethyltoluenes [1, 13]: undectectable; para-isomer in ethyltoluenes [1, 13]: 96.8%; ortho-isomer in ethyltoluenes [1, 14]: < 0.05%; para-isomer in ethyltoluenes [1, 14]: 95.7%; ortho-isomer in ethyltoluenes [1, 15]: no detectable; para-isomer in ethyltoluenes [1, 15]: 95.8%; ortho-isomer in ethyltoluenes [1, 16]: no detectable; para-isomer in ethyltoluenes [1, 16]: 92.2%; PET/ET ([1]; Example 3, 10 ppm N, 5.2 hours on stream): 96.5%; ortho-isomer in ethyltoluenes [1, 17]: no ortho; para-isomer in ethyltoluenes [1, 17]: 97.3%; ortho-isomer in ethyltoluenes [1, 18]: no detectable; para-isomer in ethyltoluenes [1, 18]: 96.8%; PET/ET [1, 19]: 95.6%; ethylene selectivity to ethyltoluenes [1, 19]: 94%; toluene selectivity to ethyltoluenes [1, 19]: 94%; OET in ethyltoluenes [1, 20]: no detectable; PET in ethyltoluenes [1, 20]: 96.9%; toluene conversion (of theory) [1, 20]: 91%; PET in ethyltoluenes [1, 21]: 98.2%; toluene conversion (of theory) [1, 21]: 90%; PET/Et [1, 22]: 94.2%; toluene conversion [1, 22]: 87%; OET in ethyltoluenes [1, 23]: no detectable; PET in ethyltoluenes [1, 23]: 90.6%; para-selectivity, ethyltoluene product ([1]; Example 17, slug 0.25 moles per mole Al, 420° C, catalyst with 7% Mg and 3% P): 98.0%; ortho-isomer in xylenes [2]: 18.3%; para isomer in xylenes [2]: 36.2%
